{
  "sequences": {"note": "By UniProt entry, the sequences of proteins in these tests, tags left out. Residues count along the entry.", "UniProt O00401": "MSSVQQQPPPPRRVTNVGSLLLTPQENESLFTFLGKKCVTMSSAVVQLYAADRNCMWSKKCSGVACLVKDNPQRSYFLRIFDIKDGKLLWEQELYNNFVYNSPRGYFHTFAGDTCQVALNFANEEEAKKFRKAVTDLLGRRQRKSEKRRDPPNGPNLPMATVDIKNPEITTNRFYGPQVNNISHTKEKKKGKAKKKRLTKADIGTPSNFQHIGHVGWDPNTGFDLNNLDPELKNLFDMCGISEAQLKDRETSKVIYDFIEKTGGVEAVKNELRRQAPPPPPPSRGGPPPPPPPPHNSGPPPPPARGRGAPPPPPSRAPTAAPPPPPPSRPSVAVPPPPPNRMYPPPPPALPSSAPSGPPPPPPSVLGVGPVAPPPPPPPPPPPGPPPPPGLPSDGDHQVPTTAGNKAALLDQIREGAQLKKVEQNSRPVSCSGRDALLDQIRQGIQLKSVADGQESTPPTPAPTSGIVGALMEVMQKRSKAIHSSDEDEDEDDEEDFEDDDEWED", "UniProt O43516": "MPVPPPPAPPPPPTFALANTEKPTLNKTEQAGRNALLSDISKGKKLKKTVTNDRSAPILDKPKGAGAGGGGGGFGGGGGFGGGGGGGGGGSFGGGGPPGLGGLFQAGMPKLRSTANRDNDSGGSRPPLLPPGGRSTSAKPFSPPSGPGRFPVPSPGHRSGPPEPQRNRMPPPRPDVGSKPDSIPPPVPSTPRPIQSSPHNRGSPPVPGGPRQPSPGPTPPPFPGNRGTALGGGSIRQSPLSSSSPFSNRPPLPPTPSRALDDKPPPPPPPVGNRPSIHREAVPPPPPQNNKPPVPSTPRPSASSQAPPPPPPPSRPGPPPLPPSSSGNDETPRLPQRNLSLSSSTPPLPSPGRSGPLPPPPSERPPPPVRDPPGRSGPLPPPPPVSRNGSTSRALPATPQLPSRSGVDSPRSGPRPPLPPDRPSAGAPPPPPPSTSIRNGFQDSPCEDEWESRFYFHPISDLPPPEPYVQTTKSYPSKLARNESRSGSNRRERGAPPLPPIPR", "UniProt P06756, residues 31-1048": "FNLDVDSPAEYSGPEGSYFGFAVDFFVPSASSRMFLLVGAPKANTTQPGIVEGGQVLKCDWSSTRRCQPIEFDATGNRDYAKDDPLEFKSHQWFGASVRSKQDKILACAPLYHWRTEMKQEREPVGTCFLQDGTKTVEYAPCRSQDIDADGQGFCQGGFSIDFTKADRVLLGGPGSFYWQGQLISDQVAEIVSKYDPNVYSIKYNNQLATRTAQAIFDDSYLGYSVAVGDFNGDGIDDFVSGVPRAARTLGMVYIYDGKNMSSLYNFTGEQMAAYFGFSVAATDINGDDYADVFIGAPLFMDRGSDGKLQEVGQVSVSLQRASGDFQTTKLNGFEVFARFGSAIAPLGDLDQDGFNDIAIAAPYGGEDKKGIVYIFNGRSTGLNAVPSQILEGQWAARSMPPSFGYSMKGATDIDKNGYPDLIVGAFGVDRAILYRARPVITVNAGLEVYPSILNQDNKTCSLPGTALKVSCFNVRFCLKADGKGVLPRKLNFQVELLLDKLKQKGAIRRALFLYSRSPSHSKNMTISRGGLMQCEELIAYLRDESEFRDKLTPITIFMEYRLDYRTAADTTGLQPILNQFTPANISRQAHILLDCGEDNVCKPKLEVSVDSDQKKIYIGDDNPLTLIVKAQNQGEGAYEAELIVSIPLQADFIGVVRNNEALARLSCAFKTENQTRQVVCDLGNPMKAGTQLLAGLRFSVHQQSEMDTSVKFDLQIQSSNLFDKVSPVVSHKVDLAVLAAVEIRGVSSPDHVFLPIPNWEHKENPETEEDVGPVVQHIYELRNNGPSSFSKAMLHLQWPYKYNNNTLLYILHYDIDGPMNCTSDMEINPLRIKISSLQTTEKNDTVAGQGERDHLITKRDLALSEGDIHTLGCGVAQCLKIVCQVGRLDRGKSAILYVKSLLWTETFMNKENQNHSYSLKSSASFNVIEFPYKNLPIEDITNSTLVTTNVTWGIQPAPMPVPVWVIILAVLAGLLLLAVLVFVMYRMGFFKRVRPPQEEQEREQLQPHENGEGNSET"},
  "source": "paper PMC9631052",
  "key": {"[1]": {"molecular_target": "T1, VAPA (construct and source not stated) (UniProt Q9P0L0)", "T1 sequence": "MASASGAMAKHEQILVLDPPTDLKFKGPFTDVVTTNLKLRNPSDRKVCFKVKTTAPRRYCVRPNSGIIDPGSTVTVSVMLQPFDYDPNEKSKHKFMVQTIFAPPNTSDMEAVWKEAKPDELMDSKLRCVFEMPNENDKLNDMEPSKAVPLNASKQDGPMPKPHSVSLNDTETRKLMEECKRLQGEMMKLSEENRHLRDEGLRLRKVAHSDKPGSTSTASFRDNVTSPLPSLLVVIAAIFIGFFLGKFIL", "assay": "co-IP; serially truncated N‐WASP fragments (anti‐VAPA antibody, Figure 5F) and VAPA fragments (anti‐N‐WASP antibody, Figure 5G) in the indicated cells"}, "[2]": {"molecular_target": "T2, VAPA immunoprecipitated with anti‐myc antibody (UniProt Q9P0L0)", "T2 sequence": "T1 sequence", "assay": "far-Western, overlay or dot blot; anti‐myc antibody‐immunoprecipitated proteins on the blot, detected with anti‐N‐WASP antibody, re‐blotted with anti‐VAPA antibody; recombinant N‐WASP as control (Figure 5C)"}, "[3]": {"molecular_target": "neural Wiskott–Aldrich syndrome protein (human (endogenous in pre‐osteoclasts)) (UniProt O00401)", "assay": "co-IP; anti‐N‐WASP antibody, membrane of pre‐osteoclasts treated with LOs derived from Hep3B/vector or Hep3B/Flag‐VAPA cells (Hep3B transfected with 0, 1, 2 and 10 µg Flag‐VAPA plasmids) (Figure 6B, 6J)"}, "Recombinant N‐WASP": {"molecular_target": "Recombinant N‐WASP (UniProt O00401)", "assay": "pull-down; in vitro; anti‐N‐WASP antibody in 'the indicated system' with VAPA, WIP and N‐WASP; the legend calls it in vitro co‐IP (Figure 6C)"}, "[4]": {"molecular_target": "T3, VAMP‐associated protein A (human (endogenous in HCCLM3‐BM4)) (UniProt Q9P0L0)", "T3 sequence": "T1 sequence", "assay": "co-IP; anti‐VAPA antibody (anti‐IgG as control), membrane of pre‐osteoclasts treated with LOs derived from HCCLM3‐BM4 cells; also with ARP2 or ARP3 knocked down (Figure 5A, 5D)"}, "[5]": {"molecular_target": "T1, VAPA (construct and source not stated)", "assay": "co-IP; serially truncated VAPA fragments and αV‐integrin (Figure S2D); cells not shown"}, "[6]": {"molecular_target": "T1, VAPA (construct and source not stated)", "assay": "far-Western, overlay or dot blot; far‐western blotting of VAPA and αV‐integrin (Figure S2B); format not shown"}},
  "note": "Results are given in words; binding and its absence hold for the method and conditions named. For some of these results: Binding seen in cells or lysates may run through a third protein. Some binding calls cover weakened binding; strength is not graded here. For some of these results: Where a sequence is shown, tags or fusion partners need not be part of it.",
  "data": [
    {"substance": "N‐WASP (parent of the serially truncated N‐WASP fragments; construct not stated) (from UniProt O00401 1-505)", "values": [
      {"measurement": "binding", "setting": "[1]", "result": "binds"}
    ]},
    {"substance": "Recombinant N‐WASP (from UniProt O00401 1-505)", "values": [
      {"measurement": "binding", "setting": "[2]", "result": "binds"}
    ]},
    {"substance": "WASP‐interacting protein (from UniProt O43516 1-503)", "values": [
      {"measurement": "binding", "setting": "[3]", "result": "binds"}
    ]},
    {"substance": "WIP (in vitro system) (from UniProt O43516 1-503)", "values": [
      {"measurement": "binding", "setting": "Recombinant N‐WASP", "result": "binds"}
    ]},
    {"substance": "neural Wiskott–Aldrich syndrome protein (from UniProt O00401 1-505)", "values": [
      {"measurement": "binding", "setting": "[4]", "result": "binds"}
    ]},
    {"substance": "αV‐integrin (construct and source not stated) (from UniProt P06756 31-1048)", "values": [
      {"measurement": "binding", "setting": "[5]", "result": "binds"},
      {"measurement": "binding", "setting": "[6]", "result": "binds"}
    ]}
  ]
}
